{"source": "PubChem BioAssay AID652243 (Drosophila RNAi Screening Center, 2013)", "screen": "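Fly regulators of androgen-dependent reporter output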 (primary screen)", "cell system": "Drosophila S2R+ cells", "reagent": "long dsRNA against Drosophila genes", "time to read-out": "72 h (48 h, then 24 h hormone)", "challenge": "synthetic androgen R1881 at 10 nM for 24 h", "measured": "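Firefly light from an androgen-responsive reporter and Renilla control light per well, raw and unnormalised, for each of two replicates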", "scale": "firefly reporter light: higher = more light from androgen-responsive reporter; Renilla control light: higher = more constitutive control signal (cell number, transfection)", "hit rule": "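Across duplicate plates, a knock-down whose log firefly/Renilla ratio shifted a set fold down or up from the GFP/LacZ control mean was a hit; the downward cut appears as both 1.5 and 3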", "calls": "active = hit: reporter lowered or raised; inactive = no hit", "note": "The deposit covers about 24,000 reagents; below is an unselected part of those that have a named target and a result. Of all reagents, 246 (1%) got an active call. 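Plates not normalised; calls are printed but the firefly/Renilla ratio behind them is not deposited; fold cut for lowering reported inconsistently.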 Raw values vary from plate to plate and are shown uncorrected. No sequences are given here. Not given: the amount of reagent."}
{"target": "CG10298", "dsRNA": "DRSC12522", "firefly reporter light, replicate 1": 1.19e5, "firefly reporter light, replicate 2": 1.03e5, "Renilla control light, replicate 1": 2.28e6, "Renilla control light, replicate 2": 1.20e6, "call": "inactive"}
{"target": "CG10298", "dsRNA": "DRSC25489", "firefly reporter light, replicate 1": 1.05e6, "firefly reporter light, replicate 2": 6.01e5, "Renilla control light, replicate 1": 1.07e6, "Renilla control light, replicate 2": 8.05e5, "call": "inactive"}
{"target": "CG7829", "dsRNA": "DRSC16322", "firefly reporter light, replicate 1": 1.28e5, "firefly reporter light, replicate 2": 99437, "Renilla control light, replicate 1": 1.49e6, "Renilla control light, replicate 2": 1.87e6, "call": "inactive"}
{"target": "CG7829", "dsRNA": "DRSC28615", "firefly reporter light, replicate 1": 4.79e5, "firefly reporter light, replicate 2": 4.56e5, "Renilla control light, replicate 1": 1.52e6, "Renilla control light, replicate 2": 1.44e6, "call": "inactive"}
{"target": "Bub3", "dsRNA": "DRSC14168", "firefly reporter light, replicate 1": 1.25e5, "firefly reporter light, replicate 2": 62513, "Renilla control light, replicate 1": 8.79e5, "Renilla control light, replicate 2": 6.58e5, "call": "inactive"}
{"target": "Bub3", "dsRNA": "DRSC28779", "firefly reporter light, replicate 1": 5.48e5, "firefly reporter light, replicate 2": 4.79e5, "Renilla control light, replicate 1": 1.24e6, "Renilla control light, replicate 2": 1.11e6, "call": "inactive"}
{"target": "CR14117", "dsRNA": "DRSC10121", "firefly reporter light, replicate 1": 1.13e5, "firefly reporter light, replicate 2": 81053, "Renilla control light, replicate 1": 1.26e6, "Renilla control light, replicate 2": 9.67e5, "call": "inactive"}
{"target": "CR14117", "dsRNA": "DRSC25950", "firefly reporter light, replicate 1": 5.95e5, "firefly reporter light, replicate 2": 6.42e5, "Renilla control light, replicate 1": 7.23e5, "Renilla control light, replicate 2": 7.38e5, "call": "inactive"}
{"target": "Hel89B", "dsRNA": "DRSC16700", "firefly reporter light, replicate 1": 4.56e5, "firefly reporter light, replicate 2": 3.66e5, "Renilla control light, replicate 1": 4.14e6, "Renilla control light, replicate 2": 3.29e6, "call": "inactive"}
{"target": "Hel89B", "dsRNA": "DRSC21575", "firefly reporter light, replicate 1": 1.99e6, "firefly reporter light, replicate 2": 1.47e6, "Renilla control light, replicate 1": 1.97e6, "Renilla control light, replicate 2": 1.74e6, "call": "inactive"}

Part of the list above, limited to “Renilla control light, replicate 2”:
CG10298 [DRSC25489] = 8.05e5
CG7829 [DRSC16322] = 1.87e6

The results go on:
{"target": "Kr-h1", "dsRNA": "DRSC00908", "firefly reporter light, replicate 1": 1.67e5, "firefly reporter light, replicate 2": 1.36e5, "Renilla control light, replicate 1": 3.25e5, "Renilla control light, replicate 2": 2.33e5, "call": "inactive"}
{"target": "Kr-h1", "dsRNA": "DRSC03355", "firefly reporter light, replicate 1": 6.63e5, "firefly reporter light, replicate 2": 8.56e5, "Renilla control light, replicate 1": 1.41e6, "Renilla control light, replicate 2": 1.46e6, "call": "inactive"}
{"target": "Kr-h1", "dsRNA": "DRSC23629", "firefly reporter light, replicate 1": 3.81e5, "firefly reporter light, replicate 2": 5.59e5, "Renilla control light, replicate 1": 5.05e5, "Renilla control light, replicate 2": 5.49e5, "call": "inactive"}
{"target": "CG5089", "dsRNA": "DRSC06914", "firefly reporter light, replicate 1": 1.26e6, "firefly reporter light, replicate 2": 8.29e5, "Renilla control light, replicate 1": 1.96e6, "Renilla control light, replicate 2": 1.13e6, "call": "inactive"}
{"target": "CG5089", "dsRNA": "DRSC30089", "firefly reporter light, replicate 1": 9.27e5, "firefly reporter light, replicate 2": 8.74e5, "Renilla control light, replicate 1": 1.01e6, "Renilla control light, replicate 2": 8.42e5, "call": "inactive"}
{"target": "Bin1", "dsRNA": "DRSC16843", "firefly reporter light, replicate 1": 2.29e5, "firefly reporter light, replicate 2": 1.91e5, "Renilla control light, replicate 1": 3.14e6, "Renilla control light, replicate 2": 2.45e6, "call": "inactive"}
{"target": "CG5026", "dsRNA": "DRSC10470", "firefly reporter light, replicate 1": 1.09e6, "firefly reporter light, replicate 2": 7.15e5, "Renilla control light, replicate 1": 1.46e6, "Renilla control light, replicate 2": 1.74e6, "call": "inactive"}
{"target": "CG5026", "dsRNA": "DRSC36891", "call": "inactive"}
{"target": "CG5026", "dsRNA": "DRSC36892", "call": "inactive"}
{"target": "CG30222", "dsRNA": "DRSC04125", "firefly reporter light, replicate 1": 1.42e5, "firefly reporter light, replicate 2": 1.92e5, "Renilla control light, replicate 1": 1.05e6, "Renilla control light, replicate 2": 5.59e5, "call": "inactive"}
{"target": "CG30222", "dsRNA": "DRSC04262", "firefly reporter light, replicate 1": 4.22e5, "firefly reporter light, replicate 2": 4.62e5, "Renilla control light, replicate 1": 2.88e6, "Renilla control light, replicate 2": 2.53e6, "call": "inactive"}
